{"source": "patent US20230301993A1", "about": "“Low-Dose Ophthalmic Compositions and Methods” (priority 2020, published 2023)", "test_system": "rabbit eye model", "assay": "Pupillometry: effect of single topical ocular administration on pupillary diameter (miotic effect) in rabbit eye model", "format": "in vivo, Dutch Belted Rabbits", "description": "The following examples were performed to determine which active pharmaceutical agent (API), alone or in combination, could effect upon topical administration an approximate 1-2 mm decrease in pupillary diameter with a desirable (e.g., about 4 h) duration of action. Unless stated otherwise, a rabbit animal model was used for the studies. Phentolamine was used as a positive control (comparator API) and caused an approximately 1 mm decrease in the pupil at 0.5% and 1% with a duration of more than 6 hours.\nStudy design: 3 Dutch Belted Rabbits (pigmented breed)/group received a single ocular administration of test articles (one drop per eye) at 3 concentrations (tested one week apart). After a 2-week rest period, combinations were tested. Ocular irritation was assessed using a modified Draize test. Intraocular pressure (IOP) was measured at baseline, 1 h, 4 h, 6 h and 24 hours. Pupillary Diameter was measured at baseline, 15 min, 1 h, 4 h and 6 h after dosing. Due to the variation in pupillary diameter and IOP between rabbits and between eyes within rabbits, the data for pupillary diameter and IOP were normalized and presented with error bars (SD). A change of 15% to 20% approximates a pupillary diameter change of 1 mm. […]", "note": "Some results were stated once for a whole list of compounds, not compound by compound.", "data": [{"smiles": "C[N+](C)(C)CCOC(N)=O", "note": "[carbachol]", "values": [{"measurement": "duration of action (miotic effect)", "setting": "carbachol, even at lowest dose (about 0.075%), rabbit", "value": "1 to 3", "unit": "h"}]}, {"smiles": "Br.COc1ccc2c3c1O[C@H]1C[C@@H](O)C=C[C@@]31CCN(C)C2", "note": "[Galantamine, galantamine]", "values": [{"measurement": "duration of reduction in pupillary diameter (lasted at least)", "setting": "high dose (2%), rabbit (FIG. 4A), listed as galantamine", "value": "1 to 3", "unit": "h"}]}, {"smiles": "CCN(C)C(=O)Oc1cccc(C(C)N(C)C)c1", "note": "(stereo not drawn) [Rivastigmine, N-ethyl-3-[1-dimethylamino)ethyl]-N-methylphenyl carbamate]", "values": [{"measurement": "duration of decrease in pupil", "setting": "concentration of about 1%, alone, rabbit", "value": "at least 6 h"}]}]}
